This note sets out measurements from PMC6776562, “Inhibition of Rac1-dependent forgetting alleviates memory deficits in animal models of Alzheimer’s disease” (Protein & Cell, 2019).

Structures are written as SMILES.

The series can be described thus: In vitro blood-brain barrier permeability assay. The conditions noted are these: dog, 37 °C, MDR-MDCK. The class given is in vitro ADME. Here is the method:
The MDR-MDCK cell line can be used as a fast blood-brain barrier (BBB) model to aid drug discovery (Wang et al., [2005]). In this study, the MDR-MDCK cell line was used to evaluate the permeability coefficients of CS7171 and JKF-034. Briefly, CS7171 and JKF-034 were prepared to final concentrations of 5 μmol/L. The cells were dosed on the basolateral side (B-A) and apical side (A-B) and incubated at 37 °C for 90 min. Each test was performed in duplicate. The apparent permeability coefficient, Papp, was calculated using the following formula: Papp=VA/Area×Time×(drugacceptor,90-min/drugdonor,0-min×Dilution Factor
VA is the volume in the acceptor well, Area is the surface area of the membrane, Time is the total transport time in seconds, [drug]donor, 0-min is the donor drug concentration measured at 0 min; [drug]acceptor, 90-min is the acceptor drug concentration measured at 90 min; dilution factor is the degree of dilution of the donor sample before loading to LC-MS/MS. If the measured permeability coefficient (Papp) is greater than 10 × 10^−6 cm/s, it is highly likely that this compound could be efficient in crossing the BBB. […] A Papp value of 5–10 × 10^−6 cm/s indicates moderate permeability. Metoprolol was used as a highly permeable control, while atenolol was used as a low-permeability control.

In the case of `CC(C)NCC(O)COc1ccc(CC(N)=O)cc1` (centres unmarked) [Atenolol, atenolol, reference compound], the Papp A→B – broadly, the apparent permeability from the apical to the basolateral side of a cell layer – at 90 min, 5 μmol/L (MDCK-MDR1, A-B) was under 20.9 nm/s. For the same compound, the Papp B→A (in general, the apparent permeability from the basolateral to the apical side of a cell layer) at 90 min, 5 μmol/L (MDCK-MDR1, B-A) was under 10.2 nm/s.
